{"source": "patent US20140294856A1", "about": "“COMBINATION TREATMENT COMPRISING A HDAC6 INHIBITOR AND AN AKT INHIBITOR” (priority 2011, published 2014)", "system": "HCT116 cells", "test": "Combination studies, SRB assay, combination index (CalcuSyn)", "type": "cell-based, human", "data": [{"smiles": "O=C(CCCCCCC(=O)Nc1ccccc1)NO", "note": "[SAHA, suberanoyl hydroxamic acid, reference compound]", "values": [{"measurement": "combination effect with inhibitors of the PI3K/AKT/mTOR pathway", "value": "synergises as well"}]}]}
